At least one peptide structure holds a part that was inferred or is arguable (an end, a ring closure or a residue). Where a SMILES comes first, the peptide text is derived from it.
Tests used:
[1] = Example 2: ALT and AST liver transaminases in serum; format: in vivo, human
HIV = assay: Example 2: HIV viral load (HIV RNA); format: in vivo; conditions: patients in which HIV RNA was measured
HCV [2] = conditions: children, local HCV RNA PCR titration assay; cited from earlier work
HCV [3] = assay: Example 2: HCV RNA viral load by PCR in HCV patients also infected with HIV, HEP1 alone; format: in vivo, human

With `CC(C)[C@H](NC(=O)[C@@H](NC(=O)[C@H](CCC(=O)O)NC(=O)[C@H](CCCNC(=N)N)NC(=O)[C@H](CCCNC(=N)N)NC(=O)[C@H](CCCCN)NC(=O)[C@H](CCCCN)NC(=O)[C@H](CCC(=O)O)NC(=O)[C@@H](N)[C@@H](C)O)[C@@H](C)O)C(=O)N[C@@H](CCC(=O)O)C(=O)N[C@@H](CCCNC(=N)N)C(=O)N[C@@H](CCC(=O)O)C(=O)N[C@@H](CCCCN)C(=O)N[C@@H](CCC(=O)O)C(=O)O` [HEP1] (H-TEKKRRETVEREKE-OH) the “patients with normalisation of enzymes levels” value ([1]; among patients in which HCV RNA became undetectable) was 4 of the 6, the “patients with reduction of ALT and AST liver transaminase enzymes in the serum” value ([1]; in vivo) was 13 out of the 19 and the “patients in whom HIV viral load dropped” value (HIV) was 3 of 4. For the same compound, the “drop of concentration of HCV virus” value (HCV [2]) was “at least 10 ×”, the “response of patients who had failed to clear HCV with earlier interferon/ribavirin treatment” value (HCV [3]; 8 out of 18 patients) was “responded to HEP1 therapy with a drop in HCV viral load” and the “patients with detectable HCV RNA who responded with a reduction of viral load” value (HCV [3]; 30 days after the end of 30 day treatment, 18 patients) was 100%. For the same compound, the “patients with HCV RNA undetectable” value (HCV [3]; 30 days after the end of the 30 day treatment period) was 6 of 18 and the “response by HCV genotype” value (HCV [3]; including HCV-1a and HCV-1b) was “All HCV genotypes characterised in the study responded to treatment”.
